Laboratory results: paper PMC12612871, “Novel 1,3-Diazepines as Nontoxic Corrosion Inhibitors” (ACS Omega, 2025)

Columns and labels:
[1] = Electrochemical polarization curve measurements
Procedure: The aqueous solutions were prepared from 5% (v/v) dimethyl sulfoxide in HCl 1 mol L^–1 in the absence and presence of inhibitors with inhibitor concentrations of 0.5, 1.5, and 2.0 mmol L^–1. The SAE 1020 steel was immersed in acid solutions for 30 min at 25 °C in open-circuit potential (OCP) conditions. Afterward, polarization curve (PC) analyses were performed, using an EmStat3+ potentiostat from PalmSens. A minimum of two runs were conducted for each experiment. An initial potential in the cathodic region (−150 mV vs OCP) was applied to measure the PC, with a sweep rate of 0.166 mV s^–1 toward more positive potentials until reaching +150 mV vs OCP. ,

[2] = SEM and EDS analysis of corrosion products; details: steel immersed 4 h in HCl solution, inhibitor 2.0 mmol L–1
From the text: Scanning electron microscopy (SEM) and energy dispersive Spec-troscopy (EDS) analysis were acquired using an FEI Quanta 3D FEG instrument.

SMILES | inhibitor type from polarization curves ([1]; SAE 1020 steel in 0.1 mol L–1 HCl solution) | OCP shift ([1]; SAE 1020 steel in 0.1 mol L–1 HCl solution, 0.5, 1.5, 2.0 mmol L–1 inhibitor) | chloride on sample surface by EDS [2] | oxygen content of corrosion products by EDS [2] [wt %]
N#CC(C(=O)c1ccccc1)=C1NCCCCN1 [compound 14, 2-(1,3-Diazepan-2-ylidene)-3-oxo-3-phenylpropanenitrile] | mixed-type inhibitor | smaller than 85 mV | No chloride was detected | 4.01
COC(=O)C(C#N)=C1NCCCCN1 [compound 12, Methyl 2-cyano-2-(1,3-diazepan-2-ylidene)-acetate] |  |  | Chloride traces were also detected | 8.33
